Data published in PMC7664998.

Molecular target: dCIZ1:3Xflag (Drosophila)
Experiment: co-IP; anti-FLAG M2 magnetic beads; S2 cells transfected with dCIZ1:3Xflag, lysed in TBS with 1% Triton X-100 and 1 mM PMSF; western blot

binding: no binding
B1: Drice (enzyme, UniProt O01382 1-339)
chain: MDATNNGESADQVGIRVGNPEQPNDHTDALGSVGSGGAGSSGLVAGSSHPYGSGAIGQLANGYSSPSSSYRKNVAKMVTDRHAAEYNMRHKNRGMALIFNHEHFEVPTLKSRAGTNVDCENLTRVLKQLDFEVTVYKDCRYKDILRTIEYAASQNHSDSDCILVAILSHGEMGYIYAKDTQYKLDNIWSFFTANHCPSLAGKPKLFFIQACQGDRLDGGVTMQRSQTETDGDSSMSYKIPVHADFLIAYSTVPGFYSWRNTTRGSWFMQSLCAELAANGKRLDILTLLTFVCQRVAVDFESCTPDTPEMHQQKQIPCITTMLTRILRFSDKQLAPAGRV

No constants are given. Whether binding was seen depends on the method and setting. In cells and extracts the contact can be indirect.
